According to patent publication US20110207656A1:
Results are given in words; binding and its absence hold for the method and conditions named. For some assays here: Binding seen in cells or lysates may run through a third protein. Some binding calls cover weakened binding; strength is not graded here. For some assays here: Where a sequence is shown, tags or fusion partners need not be part of it. Values belong to the substance of their own block, whether it stands above or below them.

The chains behind the UniProt entries cited, without tags or fusion partners. Where a name states a change or a piece, a line headed by the entry shows the natural chain unless it says otherwise.
UniProt P15941: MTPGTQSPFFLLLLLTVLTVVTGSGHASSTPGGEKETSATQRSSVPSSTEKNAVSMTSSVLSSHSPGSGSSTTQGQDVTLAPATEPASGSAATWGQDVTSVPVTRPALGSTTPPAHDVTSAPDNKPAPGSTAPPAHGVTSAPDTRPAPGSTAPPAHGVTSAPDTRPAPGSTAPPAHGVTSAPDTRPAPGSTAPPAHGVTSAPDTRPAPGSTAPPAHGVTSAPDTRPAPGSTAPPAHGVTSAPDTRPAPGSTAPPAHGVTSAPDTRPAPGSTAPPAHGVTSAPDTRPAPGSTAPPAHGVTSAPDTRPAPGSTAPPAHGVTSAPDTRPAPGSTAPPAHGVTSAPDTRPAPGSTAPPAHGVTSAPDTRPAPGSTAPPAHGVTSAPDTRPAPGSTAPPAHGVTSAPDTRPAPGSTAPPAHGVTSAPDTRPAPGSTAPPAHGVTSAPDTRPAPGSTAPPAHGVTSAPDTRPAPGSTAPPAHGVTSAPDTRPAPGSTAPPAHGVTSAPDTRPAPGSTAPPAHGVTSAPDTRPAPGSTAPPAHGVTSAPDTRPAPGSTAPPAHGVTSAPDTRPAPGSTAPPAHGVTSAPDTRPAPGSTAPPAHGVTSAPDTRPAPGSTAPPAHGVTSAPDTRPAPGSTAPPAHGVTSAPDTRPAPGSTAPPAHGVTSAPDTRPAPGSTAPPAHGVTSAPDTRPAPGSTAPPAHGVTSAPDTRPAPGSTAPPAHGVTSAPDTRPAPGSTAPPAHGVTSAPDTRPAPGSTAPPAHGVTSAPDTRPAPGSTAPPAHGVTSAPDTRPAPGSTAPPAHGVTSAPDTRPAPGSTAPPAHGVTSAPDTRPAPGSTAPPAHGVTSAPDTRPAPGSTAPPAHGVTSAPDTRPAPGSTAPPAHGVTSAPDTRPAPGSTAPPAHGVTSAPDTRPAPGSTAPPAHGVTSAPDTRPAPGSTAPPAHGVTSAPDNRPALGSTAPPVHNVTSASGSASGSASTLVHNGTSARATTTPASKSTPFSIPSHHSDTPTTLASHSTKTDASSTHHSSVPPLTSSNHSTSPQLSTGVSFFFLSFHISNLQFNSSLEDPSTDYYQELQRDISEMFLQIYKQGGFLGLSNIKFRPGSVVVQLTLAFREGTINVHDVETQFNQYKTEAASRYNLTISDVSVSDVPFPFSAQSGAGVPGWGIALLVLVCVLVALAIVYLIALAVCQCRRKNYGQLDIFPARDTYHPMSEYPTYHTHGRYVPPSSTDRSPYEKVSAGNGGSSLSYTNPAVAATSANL
UniProt Q14790: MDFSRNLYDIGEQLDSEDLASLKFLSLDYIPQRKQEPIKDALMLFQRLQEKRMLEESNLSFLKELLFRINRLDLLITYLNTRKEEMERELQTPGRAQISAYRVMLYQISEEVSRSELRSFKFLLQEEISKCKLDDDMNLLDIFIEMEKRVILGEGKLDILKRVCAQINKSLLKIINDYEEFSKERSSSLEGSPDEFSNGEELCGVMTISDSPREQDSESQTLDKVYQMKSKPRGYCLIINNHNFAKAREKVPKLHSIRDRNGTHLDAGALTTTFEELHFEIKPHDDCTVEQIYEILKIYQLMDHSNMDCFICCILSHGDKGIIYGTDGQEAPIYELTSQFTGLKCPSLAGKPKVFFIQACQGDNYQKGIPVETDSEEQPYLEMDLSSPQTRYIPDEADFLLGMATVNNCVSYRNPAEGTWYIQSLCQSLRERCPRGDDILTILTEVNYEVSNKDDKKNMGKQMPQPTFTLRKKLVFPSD
UniProt Q13158: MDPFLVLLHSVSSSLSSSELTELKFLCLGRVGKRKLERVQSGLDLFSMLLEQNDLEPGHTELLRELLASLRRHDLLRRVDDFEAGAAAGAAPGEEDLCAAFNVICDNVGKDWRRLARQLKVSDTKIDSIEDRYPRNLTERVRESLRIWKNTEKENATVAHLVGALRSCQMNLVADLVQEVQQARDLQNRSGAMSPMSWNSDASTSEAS

Tests used:
[1] = target: GST-MUC1-CD(1-72) (human) (UniProt P15941); assay: GST pull-down: His-caspase-8-p18 fragments on GST-MUC1-CD glutathione beads, anti-His immunoblot (FIG. 9C)
[2] = target: GST-caspase-8 fragment, amino acids 184-384 (includes caspase-8-p18) (human) (UniProt Q14790); assay: GST pull-down: His-MUC1-CD on GST-caspase-8 fragments, anti-His immunoblot (FIG. 9B)
GST-caspase-8 (human) = GST-caspase-8 (human) (UniProt Q14790); assay: GST pull-down: His-MUC1-CD on GST-caspase-8 glutathione beads, anti-His immunoblot (FIG. 9A)
[3] = target: GST-caspase-8 fragment, amino acids 184-384 (includes caspase-8-p18) (human) (UniProt Q14790); assay: GST pull-downs with purified proteins, immunoblot (legend of FIGS. 9A-9D)
[4] = target: T1, GST-MUC1-CD(1-20) (human); assay: GST pull-down: His-caspase-8(184-384) on GST-MUC1-CD fragments, anti-His immunoblot (FIG. 9D, upper)
T1 sequence: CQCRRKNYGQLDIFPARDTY

GST-FADD (human) = GST-FADD (human) (UniProt Q13158); assay: GST pull-down: purified MUC1-CD on GST-FADD glutathione beads, anti-MUC1-C immunoblot (FIG. 12B)
[5] = target: purified FADD protein (human) (UniProt Q13158); assay: competition GST pull-down: MUC1-CD in increasing amounts against GST-caspase-8(1-183) for FADD (FIG. 12C)
[6] = target: GST-MUC1-CD(1-72) (human) (UniProt P15941); assay: GST pull-down: purified FADD on GST-MUC1-CD glutathione beads, anti-FADD immunoblot (FIG. 12A)

binding [1]: binds
Substance: His-caspase-8-p18-B (amino acids 270-322) (from UniProt Q14790 253-305)

binding [4]: binds
Substance: His-caspase-8(184-384) (from UniProt Q14790 184-384) (enzyme)

binding [6]: binds
Substance: purified FADD protein (from UniProt Q13158 1-208)

More lines, now with the values behind:

Substance: His-MUC1-CD(1-72) (from UniProt P15941 1184-1255)
binding [2]: binds
binding (GST-caspase-8 (human)): binds
binding [3]: binds

Substance: purified MUC1-CD protein (from UniProt P15941 1184-1255)
binding (GST-FADD (human)): binds
binding [5]: binds
